# Measurements reported in PubChem BioAssay AID758 (NMMLSC, 2007).
# In all, about 190,000 compounds went through this assay and about 110 (0.058%) were called active. The inconclusive results got no clear call from the source; some entries with a clear call stand among them for comparison.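 The calls were made as follows: active = fluorescent GTP binding to Rab7 beads changed by at least 20 points from the 100% baseline, either direction, mostly lower; inconclusive = compound itself probably fluorescent, or too few beads counted; inactive = the rest.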
# Tested on: Rab7 GTPase wild type (dog), Bodipy-FL-GTP binding
# Experiment: modulators of GTP binding to Rab7, primary screen, biochemical, wildtype, multiplex bead flow cytometry (AID 758);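 also: median green fluorescence of bound Bodipy-FL-GTP per Rab7 bead population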
# Conditions: GST-Rab7 beads, fluorescent GTP binding, at 10 µM, actives lie on both sides, untreated = 100%, excess cold GTP = 0%
row,SMILES,GTP binding activity (percent of control)
1,O=C(ONC1=NCCCCC1)c1ccc([N+](=O)[O-])cc1,inactive: 103%
2,CCN1C(=O)CC2(C[N+]3(C)CCC2CC3)C1=O (centres undefined),inactive: 97%
3,c1ccc(-c2cc3c(N4CCCCC4)ncnc3s2)cc1,inconclusive: 96%
4,CCOc1cc(C(=O)NC(C)CC)cc(OCC)c1OCC (centres undefined),inconclusive: 104%
5,O=C(CSc1cccc[n+]1[O-])Nc1cc([N+](=O)[O-])ccc1Cl,inconclusive: 94%
6,COc1cc(OC)cc(C(=O)N2CCC(n3c(C)nc4cc(F)ccc43)CC2)c1,inactive: 95%
7,CCN1CCN(c2nc3c(c(=O)n(C)c(=O)n3C)n2Cc2cccc3ccccc23)CC1,inactive: 102%
8,Clc1cccc2c1CCN(Cc1nc(-c3cnccn3)no1)C2,inactive: 105%
9,COc1ccc(-n2nc(N)c(C(N)=O)n2)cc1,inactive: 94%
10,COc1cc(OC)c(C2N(C)c3ccccc3N2C)cc1OC,inconclusive: 103%
11,Cc1noc(NC(=O)c2ccccc2C(F)(F)F)c1C#N,inactive: 101%
12,Cc1nc2ccccc2c(=O)n1/N=C/c1ccc(O)cc1O,inconclusive: 104%
13,Cc1ccc(CSc2ccc3nnc(-c4cccnc4)n3n2)cc1,inconclusive: 94%
14,CN(C)c1ccnc(N(Cc2ccccc2)Cc2ccccc2)c1C#N,inactive: 96%
15,CCOC(=O)N1CCN(C(=O)c2ccc(Cn3c(=S)[nH]c4cc(OCC)c(OCC)cc4c3=O)cc2)CC1,inconclusive: 92%
16,COc1ccc(S(=O)(=O)N2CCC(C(=O)Nc3ccc(F)cc3)CC2)c2cccnc12,inactive: 95%
17,CC(C)Oc1cccc(C(=O)C2CCCN(C(=O)CCn3cnnn3)C2)c1 (centres undefined),inactive: 107%
18,Cc1ccc(C(=O)Nc2ccc(Br)cc2)cc1S(=O)(=O)Nc1ccccn1,inconclusive: 87%
19,c1ccc(C2=Nn3c(nnc3-c3ccncc3)SC2)cc1,inconclusive: 104%
20,Cc1sc(NC(=O)c2ccco2)c(CN2CCN(Cc3ccccc3)CC2)c1C,inactive: 99%
21,COc1cc(/C=N/NC(=O)c2cn(-c3cccc(C)n3)cn2)ccc1O,inconclusive: 91%
22,COc1cccc(/C=C2\SC(=S)N(NC(=O)c3ccncc3)C2=O)c1,inconclusive: 85%
23,COc1cc(/C=C2/SC(=S)NC2=O)ccc1OS(=O)(=O)c1ccc(C)cc1,inactive: 96%
24,COc1ccc(N(CC(=O)O)S(=O)(=O)c2ccccc2[N+](=O)[O-])c(OC)c1,inconclusive: 95%

row,SMILES,GTP binding activity (percent of control)
1,O=C(CSc1nnc(CNC(=O)c2cccs2)o1)NC1CCCC1,inconclusive: 103%
2,NC(=O)CSc1nnc(-c2ccc(O)cc2)n1Cc1ccco1,inconclusive: 91%
3,CCC(Sc1nc2cc3c(cc2c(=O)n1Cc1ccco1)OCO3)C(=O)Nc1ccccc1OC (centres undefined),inconclusive: 94%
4,Cc1c(Cl)cccc1NC(=O)NCc1ccncc1,inactive: 95%
5,CN(C)c1ccc(/C=C/C(=O)c2ccc3c(c2)OCCO3)cc1[N+](=O)[O-],inconclusive: 95%
6,COc1ccc(O)c(CNc2ccccc2F)c1,inconclusive: 94%
7,O=C(N1CCOCC1)C12CC3CC(C1)CC(n1cnc(Cl)n1)(C3)C2,inactive: 97%
8,COc1cc(CN(C2CCCCC2)S(=O)(=O)c2ccc(S(=O)(=O)N(C)C3CCCCC3)cc2)cc(OC)c1OC,inactive: 102%
9,CCn1c(SCC(=O)Nc2ccc3c(c2)c2ccccc2n3CC)nnc1-c1cnccn1,inconclusive: 93%
10,Cc1ccc(Nc2cc(-n3nc(C)cc3C)ncn2)c(C)c1,inconclusive: 102%
11,COc1ccc(CNC(=O)C/C(C)=N/NC(=O)COc2ccccc2)cc1,inactive: 97%
12,CCOCCCNC(=O)c1ccc(Cn2c(=S)[nH]c3c([nH]c4ccc(OC)cc43)c2=O)cc1,inconclusive: 102%
13,COCCN1Cc2cccc(C(=O)Nc3cc(C)cc(C)c3)c2C1=O,inconclusive: 89%
14,CC(C)C(NCc1c(Cl)cccc1Cl)C(=O)O (centres undefined),inactive: 112%
15,CC(C)C(NC(=S)Nc1ccccc1)C(=O)O (centres undefined),inactive: 105%
16,O=c1[nH]c2c(c3c1CCCC3)CCCC2,inconclusive: 98%
17,COCCNc1ccc([N+](=O)[O-])cc1C(=O)Nc1cccc(C)n1,inactive: 107%
18,O=C(COC(=O)c1ccc(Cl)c([N+](=O)[O-])c1)Nc1ccccc1OC(F)F,inconclusive: 99%
19,O/N=C1\CC/C(=N\O)c2nn(-c3ccc(Cl)cc3Cl)nc21,inconclusive: 94%
20,CC(C)Oc1ccc(CCc2n[nH]c(=S)n2-c2ccccc2)cc1,inactive: 103%
21,Brc1ccc(Nc2nc(-c3cccnc3)cs2)cc1,inconclusive: 97%
22,O=c1oc(-c2cccs2)nc2scc(-c3cccs3)c12,inconclusive: 93%
23,Cc1ccc(S(=O)(=O)/N=S(/C)c2ccccc2)cc1 (centres undefined),inactive: 104%
24,CC(=O)NC(=S)NNC(=O)c1ccc(Br)cc1,inactive: 108%

row,SMILES,GTP binding activity (percent of control)
1,CC(C(=O)NC1CCCC1)N(C(=O)c1snc(C(N)=O)c1N)c1ccc2c(c1)OCCO2 (centres undefined),inconclusive: 105%
2,C#Cc1ccc([C@@H]2C=C(C(=O)Nc3ccccc3)O[C@H](OCC)[C@H]2CCCO)cc1,inconclusive: 96%
3,O=C(NNC(=O)C(c1ccccc1)c1ccccc1)c1ccccn1,inactive: 96%
4,CCOc1ccccc1NC(=O)C(=O)N/N=C/c1ccc([N+](=O)[O-])cc1,inconclusive: 104%
5,CC(=O)c1ccc(NC(=S)Nc2ccc3cn[nH]c3c2)cc1,inconclusive: 89%
6,COCCNC(=O)Cn1c(=O)n(CCCCCC(=O)NCc2ccc3c(c2)OCO3)c(=O)c2sccc21,inconclusive: 100%
7,Cc1ccc(Cn2nnnc2CN2CCC(NC(=O)C(C)(C)C)CC2)cc1,inconclusive: 97%
8,CCOC(=O)c1c(NC(=O)c2c(C)noc2C)sc2c1CCCCC2,inconclusive: 108%
9,COc1cc(-c2nc3c(c(C)nn3-c3ccccc3)c3cc(OC)c(OC)cc23)ccc1O,inconclusive: 93%
10,CCOc1cccc2cc(C(=O)NCCC3=CCCCC3)c(=O)oc12,inactive: 103%
11,Cc1nn2c(-c3ccccc3)nnc2c2ccccc12,inconclusive: 92%
12,CCOC(=O)c1cccc(NC(=O)CSc2nnnn2C)c1,inconclusive: 106%
13,CC(=O)c1cnc(Nc2nc(C)c3ccccc3n2)nc1C,inconclusive: 101%
14,COCC(=O)Nc1ccc(Br)cc1,inconclusive: 102%
15,CCOc1c(CNCc2ccc(C(=O)O)cc2)cccc1OC,inactive: 103%
16,CCN(CC)CCC(=O)c1ccc(F)cc1,inconclusive: 86%
17,Cc1cccc(NC(=O)CSc2nc(NS(=O)(=O)c3ccccc3)cc(=O)[nH]2)c1,inactive: 101%
18,COc1cc(SC)ccc1C(=O)Nc1ccccc1C#N,inconclusive: 105%
19,Oc1ccc(C2N=C(c3ccccc3)NC(c3ccccc3)=N2)cc1,inconclusive: 100%
20,COc1cc(CCC(=O)Nc2ccc(Br)c(C(F)(F)F)c2)cc(OC)c1OC,inactive: 99%
21,Cc1cccc(C)c1NC(=O)C(=O)NCc1ccccn1,inactive: 99%
22,O=C(NC(=S)Nc1nc2ccc(F)cc2s1)c1ccco1,inconclusive: 92%
23,CC1=CC=CN2C1=NC(=O)CC2(C)C(=O)N(CC(=O)NC1CCCC1)c1ccccc1C (centres undefined),inactive: 104%
24,COc1ccccc1Cn1c(=S)[nH]c2cc(C(=O)NCc3cccnc3)ccc2c1=O,inconclusive: 95%

# Part of the list above in order of molecular weight, ascending:
row,SMILES,GTP binding activity (percent of control)
15,CC(C)C(NC(=S)Nc1ccccc1)C(=O)O (centres undefined),inactive: 105%
22,O=c1oc(-c2cccs2)nc2scc(-c3cccs3)c12,inconclusive: 93%
23,COc1cc(/C=C2/SC(=S)NC2=O)ccc1OS(=O)(=O)c1ccc(C)cc1,inactive: 96%

# The list goes on:

row,SMILES,GTP binding activity (percent of control)
1,CCN(c1ccc(N=Cc2c(O)n(Cc3ccc(OC)cc3)c(=O)c3ccccc23)cc1)C(C)C,inconclusive: 260%
2,CCN1CCN(C(=O)CSc2nc(N)cc(N)n2)CC1,inconclusive: 90%
3,CC(=O)N1CCN(CC(=O)Nc2c(Cl)ccc(C)c2Cl)CC1,inactive: 94%
4,COc1ccc(-c2cc(=O)oc3c(C)c(OC(=O)c4cccs4)ccc23)cc1,inconclusive: 110%
5,COc1ccc(N)c2c1C(=O)c1ccccc1C2=O,inconclusive: 92%
6,Cc1ccc(/C=C/C(=O)Nc2cc(S(N)(=O)=O)ccc2O)cc1,inconclusive: 99%
7,S=C(Nc1ccc2c(c1)OCO2)N1CCCC1,inactive: 104%
8,Cc1cc(NS(=O)(=O)c2ccc(NC(=O)c3cc4c(=O)n5ccccc5nc4s3)cc2)nc(C)n1,inactive: 104%
9,O=C(c1cc2sccc2n1Cc1ccccc1)N1CCc2ccccc21,inconclusive: 91%
10,CC(=O)N1CCc2cc(Br)cc(S(=O)(=O)NCCCN3CCCC(C)C3)c21 (centres undefined),inconclusive: 91%
11,CC(C)CC1CCCCC1OC(=O)C[N+]1(C)CCCCC1 (centres undefined),inconclusive: 99%
12,CCc1ccc(Cc2cnc(NC(=O)C3=NCCN3)s2)cc1,inactive: 101%
13,CNS(=O)(=O)c1cccc2cccnc12,inconclusive: 104%
14,CCOC(=O)C1(Cc2cccc(OC)c2)CCN(CC2CC=CCC2)CC1 (centres undefined),inactive: 101%
15,N#CCc1nc2n(n1)Cc1ccccc1-2,inconclusive: 97%
16,COCc1nc2ccccc2n1Cc1cccc(C)c1,inconclusive: 93%
17,CCN(CCCNC(=O)CCn1c(=O)[nH]c2ccccc2c1=O)c1cccc(C)c1,inconclusive: 107%
18,NC(=O)/C(=N\O)c1ccccc1,inconclusive: 97%
19,COc1ccccc1C1C(C(N)=O)=C(C)Nc2nc(-c3ccccc3Cl)nn21 (centres undefined),inconclusive: 104%
20,Cn1cnc([N+](=O)[O-])c1Oc1ccc2ccccc2c1,inactive: 99%
21,CCN(CC)S(=O)(=O)c1cccc(C(=O)N/N=C(\C)c2ccc(O)cc2O)c1,inconclusive: 92%
22,Cc1cccc(NC(=O)Nc2ccc(Oc3c(F)c(F)c(F)c(F)c3F)cc2)c1,inconclusive: 101%
